Source: PubChem BioAssay AID1259289 (Sanger Institute, 2017)
Screen: 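Kinases that bowel cancer cells need to survive, with or without BYL719, cetuximab, trametinib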 (primary screen). System: human LS513 colorectal cancer cells. Reagent: siRNA pool against human genes. Treatment: anchor drug BYL719 at 1 µM, cetuximab at 5 µg/ml or trametinib at 10 nM, or DMSO vehicle alone; exposure time not given. Detection: 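Cell survival as a fraction of the non-targeting pool, replicate means; robust z-score for silencing alone under DMSO; synergy score for each of BYL719, cetuximab and trametinib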. Reading the numbers: robust z-score, siRNA alone (DMSO): higher = more viable cells; strongly negative means essential; viability with DMSO vs control: higher = more viable cells. Units: viability with DMSO vs control in fraction of control. Active means: 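Called essential when silencing alone under DMSO gives a robust z-score below -3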. Meaning of the calls: active = essential (knock-down alone); inactive = not essential.
Shown is one part, drawn at random, of 794 deposited reagents. Over the whole deposit, 16 (2%) were called active. 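Active marks cell loss from silencing alone; drug synergy shows only in the synergy scores, not the calls.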 No viability above 1 is reported: the scale is capped. Not all columns of the deposit are shown. The record does not give: the amount of reagent, the time to read-out.

For CDK2 [SID56478596], the values are robust z-score, siRNA alone (DMSO) = 0.561; viability with DMSO vs control 1; inactive.
Knock-down of CDK19 [SID56478856] came out at: robust z-score, siRNA alone (DMSO) = 0.561; viability with DMSO vs control 1; inactive.
Knock-down of FLT3 [SID152150278] resulted in: robust z-score, siRNA alone (DMSO) = 0.187; viability with DMSO vs control 0.947; inactive.
HUS1 [SID135620649] scored robust z-score, siRNA alone (DMSO) = 0.561; viability with DMSO vs control 1; inactive.
ADPGK [SID134311981] gave robust z-score, siRNA alone (DMSO) = 0.561; viability with DMSO vs control 1; inactive.
Silencing of CAMKK1 [SID135620905] gave: robust z-score, siRNA alone (DMSO) = -0.0798; viability with DMSO vs control 0.909; inactive.
NTRK2 [SID152152425] scored robust z-score, siRNA alone (DMSO) = 0.561; viability with DMSO vs control 1; inactive.
Depletion of MAP3K10 [SID56478692] gave: robust z-score, siRNA alone (DMSO) = 0.561; viability with DMSO vs control 1; inactive.
Against MGA [SID135624287], the values are robust z-score, siRNA alone (DMSO) = -2.15; viability with DMSO vs control 0.615; inactive.
Against PIP5K1B [SID152154468] the deposit lists robust z-score, siRNA alone (DMSO) = 0.561; viability with DMSO vs control 1; inactive.
With knock-down of SKAP1 [SID152154182], the record shows robust z-score, siRNA alone (DMSO) = 0.561; viability with DMSO vs control 1; inactive.
After knock-down of LATS1 [SID56478819] the results were robust z-score, siRNA alone (DMSO) = -0.217; viability with DMSO vs control 0.89; inactive.
With knock-down of TRIM27 [SID152155375] the results were robust z-score, siRNA alone (DMSO) = -0.459; viability with DMSO vs control 0.855; inactive.
Silencing of GTF2H1 [SID56479243] gave: robust z-score, siRNA alone (DMSO) = -2.93; viability with DMSO vs control 0.505; inactive.
AXL [SID152148834] gave robust z-score, siRNA alone (DMSO) = 0.561; viability with DMSO vs control 1; inactive.
For RPS6KA5 [SID135620863], the values are robust z-score, siRNA alone (DMSO) = 0.561; viability with DMSO vs control 1; inactive.
CKB [SID56479084] gave robust z-score, siRNA alone (DMSO) = 0.561; viability with DMSO vs control 1; inactive.
For MAPK3 [SID135620708], the values are robust z-score, siRNA alone (DMSO) = 0.561; viability with DMSO vs control 1; inactive.
After knock-down of EEF2K [SID152154873] the results were robust z-score, siRNA alone (DMSO) = 0.561; viability with DMSO vs control 1; inactive.
